No constants are given. Whether binding was seen depends on the method and setting. Binding seen in cells or lysates may run through a third protein. Some binding calls cover weakened binding; strength is not graded here.
Target: dynamin-related protein 1 (Drp1) (mouse (endogenous in mouse cerebellum)) (UniProt Q8K1M6)
Assay: co-IP; mouse cerebellum total lysate (50 mM Tris-HCl pH 7.5, 150 mM NaCl, 1% Triton X-100), 800 ug protein, anti-Drp1 antibody overnight at 4°C, protein A/G beads, blot for Drp1 and Fis1; mice with TBI or sham injury, treated with P110 or control peptide TAT

The chains behind the UniProt entries cited, without tags or fusion partners.
UniProt Q8K1M6: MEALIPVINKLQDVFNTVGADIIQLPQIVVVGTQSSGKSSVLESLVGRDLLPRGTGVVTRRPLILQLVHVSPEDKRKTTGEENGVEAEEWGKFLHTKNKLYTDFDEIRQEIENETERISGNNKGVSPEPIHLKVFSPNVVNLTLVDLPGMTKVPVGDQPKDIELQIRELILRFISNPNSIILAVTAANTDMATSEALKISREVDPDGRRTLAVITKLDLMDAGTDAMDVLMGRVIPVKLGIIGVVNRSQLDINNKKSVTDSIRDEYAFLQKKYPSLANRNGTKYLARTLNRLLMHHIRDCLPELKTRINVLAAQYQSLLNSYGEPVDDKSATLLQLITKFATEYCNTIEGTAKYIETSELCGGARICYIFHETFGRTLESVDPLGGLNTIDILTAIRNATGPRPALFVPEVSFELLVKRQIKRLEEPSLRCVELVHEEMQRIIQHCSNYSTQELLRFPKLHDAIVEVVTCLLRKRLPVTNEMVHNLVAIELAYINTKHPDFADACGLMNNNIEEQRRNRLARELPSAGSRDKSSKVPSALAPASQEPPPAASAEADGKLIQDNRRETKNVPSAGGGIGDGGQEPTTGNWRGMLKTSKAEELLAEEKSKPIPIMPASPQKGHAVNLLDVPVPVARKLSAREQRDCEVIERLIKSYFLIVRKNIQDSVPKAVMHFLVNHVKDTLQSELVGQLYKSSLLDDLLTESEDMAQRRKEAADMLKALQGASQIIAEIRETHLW

B1: mitochondrial fission 1 protein (Fis1) (protein, UniProt Q9CQ92 1-152)
chain: MEAVLNELVSVEDLKNFERKFQSEQAAGSVSKSTQFEYAWCLVRSKYNEDIRRGIVLLEELLPKGSKEEQRDYVFYLAVGNYRLKEYEKALKYVRGLLQTEPQNNQAKELERLIDKAMKKDGLVGMAIVGGMALGVAGLAGLIGLAVSKSKS
  binding: binds

Reference: PMC11525032
